According to publication PMC5814047 (PLoS ONE, 2018):

Test: peptide synthesis
Conditions: whole synthesis, HPLC

ACSWWSIHLCG
purity (crude or final not stated): ~95%

Where a sequence shows no end group, the ends are not given.
